Test results published in publication PMC6406280.
For at least one entry, the source does not settle the construct or the ends of the probe.

Tested on: thrombin
Test: thrombin inhibition (apparent Ki)
Conditions: no binding assay done in this paper (SEC, CD/UV melting, analysis of published structures); folded or branched DNA

Question: How did the Ki turn out when GGTTGGGTAGGGTGG [NU (00a)] was run?
Answer: 46 nM
